{"sequences": {"note": "The chains behind the UniProt entries cited, without tags or fusion partners. Residues count along the entry.", "UniProt P20152, 2-466": "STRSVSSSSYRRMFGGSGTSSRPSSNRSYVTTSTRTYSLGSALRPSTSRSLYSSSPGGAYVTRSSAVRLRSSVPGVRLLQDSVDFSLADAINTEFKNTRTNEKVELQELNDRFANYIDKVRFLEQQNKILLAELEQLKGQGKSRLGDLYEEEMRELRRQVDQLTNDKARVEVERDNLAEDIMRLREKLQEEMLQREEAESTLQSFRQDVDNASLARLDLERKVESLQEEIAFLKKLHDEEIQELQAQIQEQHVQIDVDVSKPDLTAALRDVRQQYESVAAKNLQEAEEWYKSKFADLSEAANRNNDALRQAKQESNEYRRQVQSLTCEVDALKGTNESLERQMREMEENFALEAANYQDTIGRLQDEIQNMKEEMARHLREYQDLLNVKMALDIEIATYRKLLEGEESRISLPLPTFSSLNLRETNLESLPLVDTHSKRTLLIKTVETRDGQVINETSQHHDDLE"}, "source": "patent US20220175935", "key": {"Annexin A4 (ANXA4)": {"target": "T1, Annexin A4 (ANXA4) (UniProt P97429)", "T1 sequence (looked up, limits assumed)": "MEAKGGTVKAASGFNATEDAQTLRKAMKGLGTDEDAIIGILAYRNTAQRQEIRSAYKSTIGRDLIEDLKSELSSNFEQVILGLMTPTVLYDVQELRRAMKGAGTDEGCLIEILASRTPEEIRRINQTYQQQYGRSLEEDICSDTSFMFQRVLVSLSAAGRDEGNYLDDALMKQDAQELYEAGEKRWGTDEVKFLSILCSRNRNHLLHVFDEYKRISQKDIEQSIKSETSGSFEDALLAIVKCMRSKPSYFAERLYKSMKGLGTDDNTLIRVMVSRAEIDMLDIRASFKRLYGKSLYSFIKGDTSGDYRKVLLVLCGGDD", "assay": "flow cytometry", "conditions": "2'-F (2'-fluoro-RNA, DuraScribe T7 transcription); irrelevant-protein beads as control; target found by aptamer pulldown/MS; purified recombinant protein; label: Cy3"}, "Vimentin (VIM)": {"target": "Vimentin (VIM) (UniProt P20152)", "assay": "flow cytometry", "conditions": "2'-F (2'-fluoro-RNA, DuraScribe T7 transcription); irrelevant-protein beads as control; target found by aptamer pulldown/MS; purified recombinant protein; label: Cy3"}}, "note": "The exact form of at least one protein or probe is not confirmed. For some assays here: Tags and fusion partners may be left off the protein sequences shown."}
{"sequence": "GGAGGACGAUGCGGAUUACCAACUUGAACGCCGAGAGUGUGGUCACGUGUUCUGCAGACGACUCGCUGAGGAUCCGAGA [aptamer 3]", "values": [{"measurement": "binding result", "setting": "Annexin A4 (ANXA4)", "result": "binds"}]}
{"sequence": "GGAGGACGAUGCGGGGAAGCAACACUUAGUCGCGAUUGAUACGUGCGCAGUCAUCAGACGACUCGCUGAGGAUCCGAGA [aptamer 11]", "values": [{"measurement": "binding result", "setting": "Vimentin (VIM)", "result": "binds"}]}
